The assay has as its target FUS (FUSed in sarcoma), His-MBP-FUS (UniProt P35637). Kind of assay: co-IP.

Chains of the proteins cited; added tags and fusions are not shown. Lines headed by an entry give the natural chain unless they say otherwise; changes in a name come on top.
UniProt P35637, whole entry: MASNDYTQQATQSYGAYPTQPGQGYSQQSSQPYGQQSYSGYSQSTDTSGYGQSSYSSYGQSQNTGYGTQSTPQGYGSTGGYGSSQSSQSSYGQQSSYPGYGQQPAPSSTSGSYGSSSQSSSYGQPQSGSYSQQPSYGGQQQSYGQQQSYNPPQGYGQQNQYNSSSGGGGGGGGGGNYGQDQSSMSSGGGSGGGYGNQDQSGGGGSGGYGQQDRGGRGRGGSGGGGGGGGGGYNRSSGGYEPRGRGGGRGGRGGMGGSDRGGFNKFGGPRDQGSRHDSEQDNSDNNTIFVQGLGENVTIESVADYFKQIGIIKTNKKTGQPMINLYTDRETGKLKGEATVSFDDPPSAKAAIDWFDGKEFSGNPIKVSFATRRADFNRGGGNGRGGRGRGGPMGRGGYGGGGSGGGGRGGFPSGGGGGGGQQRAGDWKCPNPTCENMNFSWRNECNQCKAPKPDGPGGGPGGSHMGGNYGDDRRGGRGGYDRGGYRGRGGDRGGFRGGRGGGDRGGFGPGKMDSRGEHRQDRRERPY
UniProt P00573, whole entry, looked up, stated change not applied: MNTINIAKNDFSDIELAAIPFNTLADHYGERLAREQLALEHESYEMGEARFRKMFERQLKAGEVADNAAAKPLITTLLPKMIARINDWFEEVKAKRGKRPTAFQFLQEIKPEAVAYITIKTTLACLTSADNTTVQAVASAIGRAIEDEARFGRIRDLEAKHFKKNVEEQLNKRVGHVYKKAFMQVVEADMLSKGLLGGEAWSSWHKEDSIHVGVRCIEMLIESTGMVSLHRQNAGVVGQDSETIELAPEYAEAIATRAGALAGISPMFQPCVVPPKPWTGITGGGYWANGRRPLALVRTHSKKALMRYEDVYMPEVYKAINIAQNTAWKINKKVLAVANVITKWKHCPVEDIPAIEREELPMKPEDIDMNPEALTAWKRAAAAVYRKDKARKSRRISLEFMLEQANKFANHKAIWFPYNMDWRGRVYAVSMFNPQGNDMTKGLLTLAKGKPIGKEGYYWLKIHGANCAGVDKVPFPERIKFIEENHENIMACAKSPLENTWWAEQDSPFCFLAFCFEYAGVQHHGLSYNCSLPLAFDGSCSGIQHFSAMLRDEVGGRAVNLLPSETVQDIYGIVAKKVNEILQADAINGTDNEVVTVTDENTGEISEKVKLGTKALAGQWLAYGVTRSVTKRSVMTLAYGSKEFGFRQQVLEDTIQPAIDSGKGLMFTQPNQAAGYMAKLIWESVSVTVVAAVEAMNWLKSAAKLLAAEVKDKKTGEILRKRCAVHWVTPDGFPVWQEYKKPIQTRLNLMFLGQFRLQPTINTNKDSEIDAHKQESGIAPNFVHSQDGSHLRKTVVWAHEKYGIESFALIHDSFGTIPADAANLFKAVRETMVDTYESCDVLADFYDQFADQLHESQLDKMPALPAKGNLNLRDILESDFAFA

No constants are given. Whether binding was seen depends on the method and setting.

Turning to “T7 phage RNA polymerase (P266L), 6xHis-tagged (from UniProt P00573 1-883) (enzyme)”, the binding result is on record as “no binding”.

These data come from paper doi:10.1101/2022.08.11.503633.
